Test results reported in paper PMC12870119.
These are yes or no findings as the source states them, for the method shown. In cells and extracts the contact can be indirect. Some results given as binding are weak or reduced against the parent protein; the word gives no strength.

Protein sequences, listed by entry. Tags and fused reporters are not part of them.
UniProt Q8R4B8: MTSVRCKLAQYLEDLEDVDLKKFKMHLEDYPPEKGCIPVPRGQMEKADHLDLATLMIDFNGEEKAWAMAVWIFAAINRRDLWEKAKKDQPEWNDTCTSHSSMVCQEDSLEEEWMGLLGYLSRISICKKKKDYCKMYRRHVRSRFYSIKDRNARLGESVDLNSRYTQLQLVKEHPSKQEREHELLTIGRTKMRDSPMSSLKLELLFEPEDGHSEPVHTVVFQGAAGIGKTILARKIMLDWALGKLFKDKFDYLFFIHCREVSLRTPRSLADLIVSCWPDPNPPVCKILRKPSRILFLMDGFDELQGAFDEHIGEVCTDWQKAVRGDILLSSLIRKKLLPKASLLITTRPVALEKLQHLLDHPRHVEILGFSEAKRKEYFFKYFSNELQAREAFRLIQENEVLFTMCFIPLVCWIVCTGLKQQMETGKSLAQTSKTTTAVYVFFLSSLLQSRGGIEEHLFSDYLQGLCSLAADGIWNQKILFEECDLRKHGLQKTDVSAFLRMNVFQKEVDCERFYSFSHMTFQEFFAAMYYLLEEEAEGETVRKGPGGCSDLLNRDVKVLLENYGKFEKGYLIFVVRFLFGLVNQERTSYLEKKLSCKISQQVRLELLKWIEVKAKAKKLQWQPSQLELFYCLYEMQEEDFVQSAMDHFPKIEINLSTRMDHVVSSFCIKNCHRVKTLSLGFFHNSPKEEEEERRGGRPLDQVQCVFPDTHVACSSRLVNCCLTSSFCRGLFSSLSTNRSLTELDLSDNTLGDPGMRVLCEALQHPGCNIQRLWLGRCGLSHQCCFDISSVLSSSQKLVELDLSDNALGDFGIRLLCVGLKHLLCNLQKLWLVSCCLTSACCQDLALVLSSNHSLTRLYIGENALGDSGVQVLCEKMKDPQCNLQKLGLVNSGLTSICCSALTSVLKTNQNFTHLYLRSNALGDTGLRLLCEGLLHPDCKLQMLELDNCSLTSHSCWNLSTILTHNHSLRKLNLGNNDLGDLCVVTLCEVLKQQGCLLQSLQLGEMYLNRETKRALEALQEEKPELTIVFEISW

Target: T1, Stimulator of interferon genes (mouse (endogenous in DC2.4)) (UniProt Q3TBT3)
T1 sequence: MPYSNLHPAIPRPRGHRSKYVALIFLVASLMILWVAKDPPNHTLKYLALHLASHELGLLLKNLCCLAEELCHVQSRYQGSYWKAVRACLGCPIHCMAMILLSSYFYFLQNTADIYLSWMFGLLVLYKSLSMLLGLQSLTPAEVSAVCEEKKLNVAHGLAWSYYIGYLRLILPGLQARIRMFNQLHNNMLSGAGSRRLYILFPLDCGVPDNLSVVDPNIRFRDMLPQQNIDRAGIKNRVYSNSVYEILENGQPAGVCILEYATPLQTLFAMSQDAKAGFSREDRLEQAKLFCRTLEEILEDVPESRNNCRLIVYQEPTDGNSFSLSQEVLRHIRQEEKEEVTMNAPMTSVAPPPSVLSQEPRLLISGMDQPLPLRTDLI
Test: co-IP; con and Trim13 KD DC2.4 cell lysates (nondenaturing lysis) immunoprecipitated with anti-STING antibody, protein A magnetic beads, probed with anti-NLRP3; cells stimulated with LPS (1 ug/ml, 24 h); IgG control

NLR family pyrin domain containing 3 (from UniProt Q8R4B8 1-1033)
binding: binds
